Laboratory results reported in patent publication US8895717B2, “Delivery of siRNA by neutral lipid compositions” (The Board of Regents of the University of Texas System, priority 2005, dated 2014).
Entries after “also recorded” stand apart in the source; their conditions may differ. Counter-ions that a name gives are not always drawn. For at least one compound, name, drawing or mass did not settle the structure. Some results were stated once for a whole list of compounds, not compound by compound. d = 2'-deoxy (DNA); r = 2'-OH (RNA)

Experiments:
HeyA8 cells = experiment: Chronic restraint stress, HeyA8 orthotopic tumor growth; assay type: in vivo, nude mice
From the text: Mice habituated to vivarium conditions for 1 week before the initiation of stress procedures. A restraint-stress procedure was used based on previous studies (Sheridan et al., 1991), substituting a novel Mouse Restraint System (FIG. 15A) for conical centrifuge tubes. In this system, up to 10 mice are placed in individual slots, and each slot can be adjusted to restrain the animal for a desired length of time. In the present study, restraint stress began between 8 a.m. and 10 a.m., and lasted for 2-6 hours for up to 21 days. […] Immunohistochemistry and H&E staining procedures were carried out on formalin-fixed paraffin-embedded tumors. […] Pumps were inserted on the nape of the neck 7 days prior to initiation of restraint stress for 2 hours daily. Mice were anesthetized with inhaled methoxyflurane (Medical Developments Australia Pty. Ltd, Melbourne, Australia), and implanted with Alzet pumps containing PBS or S-propranolol hydrochloride (Sigma Co., St. Louis, Mo.) diluted in PBS at a dose of 2 mg/kg/day, which allows for chronic continuous receptor blockade, for 28 days (Aarons and Molinoff, 1982; Exton et al., 2002).

VEGF mRNA = VEGF mRNA expression, real-time RT-PCR; assay type: cell-based, human; settings: SKOV3ip1; forskolin 1 μM, db-cAMP 1 mM
Protocol: Total RNA was extracted (Trizol reagent; Invitrogen Co, Carlsbad, Calif.) and reverse transcribed using an oligo(dT) primer and M-MLV reverse transcriptase (Life Technologies, Inc., Rockville, Md.) in a final reaction volume of 20 μl (60 min at 42° C.). PCR amplifications are performed using the ABI Prism 7700 Sequence Detection System with TaqMan One-Step RT-PCR Master Mix Reagent kit (PE Applied Biosystems, Foster City, Calif.). Quantitative values are obtained from the Ct value, at which the increase in fluorescent signal associated with exponential growth of PCR products starts to be detected by the laser detector of the Sequence Detection System, using the analysis software according to the manufacturer's instructions (each sample is normalized on the basis of its I8S content). The VEGF primers were obtained from Applied Biosystems (Item number HS00173626-ml). βAR expression was examined with semi-quantitative RT-PCR using the following primers: βAR (forward, 5′-[…]-3′ (SEQ ID NO:13), reverse, 5′-[…]-3′) (SEQ ID NO:14); β2AR (forward, 5′-[…]-3′ (SEQ ID NO:15), reverse, 5′-[…]-3′) (SEQ ID NO:16).

For `Clc1ccc(Nc2nnc(Cc3ccncc3)c3ccccc23)cc1` [PTK787, 1-[4-Chloroanilino]-4-[pyridylmethyl]phthalazine dihydrochloride], the “tumor growth compared to controls” value (HeyA8 cells; 50 mg/kg oral daily, no stress) was “did not affect tumor growth in non-stressed animals” and the “effect on stress induced increase in tumor weight and number of nodules” value (HeyA8 cells; 50 mg/kg oral daily, with stress, dihydrochloride) was “efficiently blocked the effects of stress on both tumor weight and number of nodules; also recorded: blocked the stress induced increase in tumor weight and number of nodules”.

In the case of `C=C[C@@]1(C)CC(=O)[C@]2(O)[C@@]3(C)[C@@H](O)CCC(C)(C)[C@@H]3[C@H](O)[C@H](OC(C)=O)[C@@]2(C)O1` [forskolin], the “effect on VEGF mRNA” value (VEGF mRNA) is reported as “also increased VEGF mRNA levels”.

With “control siRNA: sense r(UUUUCCGAACGUGUCACGU)dTT, antisense r(ACGUGACACGUUCGGAGAA)dTT, no homology with human mRNA; in vivo in DOPC (sense UUUUCCGAACGUGUCACGUTT; antisense ACGUGACACGUUCGGAGAATT; sugars from the 5' end r19 d2, backbone not given here)” the “increase in tumor weight with chronic stress” value (HeyA8 cells; siRNA in DOPC) was 2-3 fold.
